# Results taken from PubChem BioAssay AID504834 (National Center for Advancing Translational Sciences (NCATS), 2011).
# About 22,000 (6.9%) of roughly 320,000 compounds were called active. The shares of active, inactive and inconclusive entries below differ from those in the screen. The call rests on the fitted dose curve; in most records, active means well fitted inhibition curve with a large enough effect; inconclusive means small, poorly fitted or top-dose-only effect, or another doubt; inactive means no such curve, though single readings can be large or run the other way. Potencies beside an inconclusive call are fits to weak or partial responses and may not hold up.
# Assay: Primary qHTS for delayed death inhibitors of the malarial parasite plastid, 96 hour incubation
# Details: P. falciparum luciferase reporter growth; series mostly up to 28.7 µM; activity change, negative = inhibition: at the top concentration
# Procedure, shortened: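 Two parasite generations (96 h, 37 C, 5% CO2) of compound exposure in infected erythrocytes (0.05% parasitemia, 2% hematocrit). Luciferase-reporter P. falciparum; decreased luminescence indicates inhibited growth, aimed at apicoplast-acting delayed death.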
# On the % scale 0 is the no-effect control and ±100 the full control effect; potency means the concentration at half of the fitted maximal effect.
Structure (SMILES),Potency,"activity change, negative = inhibition"
Cc1ccc(S(=O)(=O)c2cc3c(=O)n4ccccc4nc3n(C3CCCCC3)c2=N)cc1,"inconclusive: 9.28 µM [inhibitor, partial curve, poor fit]",–
CN1CN(C)c2cccc3cccc1c23,active: 4.15 µM,–
O=C(/C(=N/N=C/c1ccc(O)c(O)c1O)c1ccccc1)c1ccccc1,"inconclusive: 11.7 µM [inhibitor, single point]",–
Cc1ccc(/C=C/c2nnc(-c3cccc(C)c3)o2)cc1,–,inactive: 5.12%
CC(=O)c1nn(-c2cccc(Cl)c2)cc1C(=O)c1ccco1,"inconclusive: 2.33 µM [inhibitor, full curve, poor fit]",–
COc1ccc(C(=O)C(CN2CCOCC2)c2ccccc2)cc1 (centres undefined),"inconclusive: 13.1 µM [inhibitor, partial curve, poor fit]",–
Cc1cc(CN2CCCCC2C(=O)Nc2ccc(Oc3cccnc3)cc2)oc1C (centres undefined),"inconclusive: 18.5 µM [inhibitor, single point]",–
CCOC(=O)C1C2C=CC3(CN(C4CCCC4)C(=O)C13)O2 (centres undefined),–,inactive: 8.56%
C=CCN1CCc2cc(O)c(O)cc2C(c2ccccc2)C1 (centres undefined),"inconclusive: 13.1 µM [inhibitor, single point]",–
Cc1ccsc1C(=O)OCC(=O)N1CCc2ccccc2C1,–,inactive: 480%
CCN1CCN(c2nc(-c3ccccc3)nc3ccccc23)CC1,"inconclusive: 18.5 µM [inhibitor, single point]",–
COc1ccc(OC)c(NC(=O)Cc2cccs2)c1,"inconclusive: 11.7 µM [inhibitor, single point]",–
Cc1ccc(N/C=C(\C#N)S(=O)(=O)c2ccccc2)cc1,"inconclusive: 18.5 µM [inhibitor, single point]",–
O=C(CSc1nnc(Nc2ccccc2F)s1)NC1CCCC1,"inconclusive: 18.5 µM [inhibitor, single point]",–
Cc1cc(=O)oc2cc(OCC(=O)OCC(=O)N(C)C3CCS(=O)(=O)C3)ccc12 (centres undefined),"inconclusive: 1.85 µM [inhibitor, partial curve, poor fit]",–
CCOC(=O)C1CCN(C(=O)CCNS(=O)(=O)c2ccc(C)cc2)CC1,"inconclusive: 8.28 µM [inhibitor, single point]",–
COC(=O)c1ccc(NC(=O)c2ccccc2N(C)S(C)(=O)=O)cc1,"inconclusive: 0.0928 µM [inhibitor, partial curve, poor fit]",–
CCc1cccc(C)c1NC(=O)C1C2CCC(O2)C1C(=O)O (centres undefined),"inconclusive: 2.62 µM [inhibitor, partial curve, poor fit]",–
COc1ccccc1/C=C\C=N\n1c(-c2ccc(Cl)cc2)n[nH]c1=S,"inconclusive: 6.57 µM [inhibitor, single point]",–
O=Cc1c(Nc2ccccc2Cl)nc2ccccn2c1=O,"inconclusive: 8.28 µM [inhibitor, single point]",–
O=C1NC2(CCCC2)N=C1c1ccc(Cl)cc1,"inconclusive: 10.4 µM [inhibitor, single point]",–
CCNC(=S)N(Cc1cc2cc(C)ccc2[nH]c1=O)C1CCCC1,"inconclusive: 11.7 µM [inhibitor, partial curve, poor fit]",–
CCOC(=O)c1ccc(NC(=S)N2CCN(c3ccccn3)CC2)cc1,"inconclusive: 18.5 µM [inhibitor, single point]",–

Structure (SMILES),Potency,"activity change, negative = inhibition"
COc1ccc(CNc2ccc3c(c2)CCC3)cc1OC,"inconclusive: 1.04 µM [inhibitor, partial curve, poor fit]",–
Nc1nnc(CC(=O)N/N=C/c2ccccc2OCc2ccccc2F)s1,–,inactive: -6.74%
Cc1ccc(S(=O)(=O)N2CCC(C(=O)NCc3ccccc3CN3CCCC3)CC2)cc1C,"inconclusive: 18.5 µM [inhibitor, single point]",–
O=c1[nH]ncn1-c1ccccc1,–,inactive: -1.76%
CC(C)=CC(=O)OCc1cc([N+](=O)[O-])cc2c1OCOC2,–,inactive: 132%
Cc1cc(C)n(CCC(=O)N/N=C/c2ccc(O)cc2)n1,–,inactive: -25.3%
C=CCNC(=O)c1ccc(C2SCC(=O)N2Cc2ccccc2)cc1 (centres undefined),"inconclusive: 4.15 µM [inhibitor, single point]",–
CCOC(=O)c1ccc(NC(=O)c2cccnc2)cc1,"inconclusive: 0.522 µM [inhibitor, partial curve, poor fit]",–
CC(Oc1ccc(Cl)cc1Cl)C(=O)NCCCn1ccnc1 (centres undefined),"inconclusive: 18.5 µM [inhibitor, single point]",–
Cc1ccc(NC(=O)CSCC(=O)OCc2cc(=O)oc3cc(O)ccc23)c(C)c1,–,inactive: 15.1%
C=CCNC(=O)c1cc2c(=O)n3cc(C)ccc3nc2nc1NCC1CCCO1 (centres undefined),active: 4.15 µM,–
CCCCOc1ccc(/C=C/C(=O)Nc2ccc([N+](=O)[O-])cc2C)cc1,"inconclusive: 13.1 µM [inhibitor, single point]",–
O=C(CCl)N(C/C=C/c1ccccc1)c1ccc2c(c1)OCCO2,"inconclusive: 1.65 µM [inhibitor, full curve]",–
CCOc1ccc(-c2cc3nc(C4CCN(C(=O)OC(C)(C)C)CC4)c(C(=O)O)cn3n2)cc1,"inconclusive: 11.7 µM [inhibitor, partial curve, poor fit]",–
CCOC(=S)SCC(=O)Nc1nc(-c2ccccc2)cs1,"inconclusive: 18.5 µM [inhibitor, single point]",–
COc1ccccc1N(C)S(=O)(=O)c1ccc(C)c(C(=O)Nc2nccs2)c1,"inconclusive: 9.28 µM [inhibitor, single point]",–
CCN(CC)C(=O)CSc1nc2cc(S(=O)(=O)N3CCOCC3)ccc2n1CC,"inconclusive: 10.4 µM [inhibitor, partial curve]",–
Cc1ccc2cccc(OCc3cccc([N+](=O)[O-])c3)c2n1,"inconclusive: 0.104 µM [inhibitor, full curve, poor fit]",–
COc1ccc(C(=O)N2CCCC(N3CCN(c4ccccc4F)CC3)C2)c(OC)n1 (centres undefined),active: 13.1 µM,–
Cc1ccc(-c2nnc(SCC(=O)NNC(=O)COc3cccc4ccccc34)n2C)cc1,–,inactive: -0.984%
COc1ccc(-n2ncc3c(SCC(=O)NNC(C)=O)ncnc32)cc1,–,inactive: 39.1%
CCOc1ccc(NC(=O)c2nsc(Cl)c2Cl)cc1,–,inactive: 134%
CCN(CC)S(=O)(=O)c1ccc(OC)c(NC(=O)CSc2cc(Cl)ccc2Cl)c1,"inconclusive: 18.5 µM [inhibitor, single point]",–

# 3 records picked at random from those above, as already listed:
Structure (SMILES),Potency,"activity change, negative = inhibition"
Cc1ccc(-c2nnc(SCC(=O)NNC(=O)COc3cccc4ccccc34)n2C)cc1,–,inactive: -0.984%
COc1ccc(CNc2ccc3c(c2)CCC3)cc1OC,"inconclusive: 1.04 µM [inhibitor, partial curve, poor fit]",–
CC(C)=CC(=O)OCc1cc([N+](=O)[O-])cc2c1OCOC2,–,inactive: 132%

# (further entries)

Structure (SMILES),Potency,"activity change, negative = inhibition"
O=C(CCC(=O)N1CCSc2ccccc21)NC1CCCCC1,"inconclusive: 18.5 µM [inhibitor, single point]",–
CCOc1ccc(N2CC(C(=O)OCC(=O)NCc3ccccc3)CC2=O)cc1 (centres undefined),"inconclusive: 0.0029 µM [inhibitor, full curve, poor fit]",–
Cc1ccc(S(=O)(=O)N2CCN(C(=O)CSc3nc4ccccc4c(=O)[nH]3)CC2)c(C)c1,"inconclusive: 13.1 µM [inhibitor, single point]",–
CCOc1ccc(C2SCC(=O)Nc3c2c(C)nn3C2CCOC(C)(C)C2)cc1 (centres undefined),"inconclusive: 18.5 µM [inhibitor, single point]",–
CCn1c(C(c2ccccc2)c2ccccc2)n[nH]c1=S,"inconclusive: 5.22 µM [inhibitor, partial curve]",–
CN1CCN(C(=O)c2ccc3c(c2)N(C)C(=O)/C(=C/c2cccc(Cl)c2)S3)CC1,"inconclusive: 6.57 µM [inhibitor, partial curve, poor fit]",–
COc1ccc(CCNC(=O)CCCn2c(SCC(N)=O)nc3cc4c(cc3c2=O)OCO4)cc1OC,"inconclusive: 5.86 µM [inhibitor, partial curve, poor fit]",–
CCOC(=O)Cn1nc(C)cc1NC(=O)c1cccnc1,–,inactive: 30.2%
Clc1ccc(CS[C@@H](Cn2ccnc2)c2ccc(Cl)cc2Cl)cc1,active: 2.28 µM,–
CCOC(=O)N1CCc2c(sc3c2c(=O)n(Cc2ccccc2)c(=O)n3Cc2ccc(C)cc2)C1,"inconclusive: 20.8 µM [inhibitor, partial curve, poor fit]",–
CC(=O)c1c(C)[nH]c(C(=O)OCC(=O)Nc2c(C)n(C)n(-c3ccccc3)c2=O)c1C,–,inactive: 17.9%
CCOc1ccc(-c2noc(CCC(N)=O)n2)cc1OCC,–,inactive: -19%
O=C(COC(=O)c1ccccn1)Nc1cccc(Cl)c1Cl,"inconclusive: 18.5 µM [inhibitor, single point]",–
COCCCNC(=O)CC1C(=O)N(Cc2ccccc2)C(C)c2nc3ccccc3n21 (centres undefined),"inconclusive: 18.5 µM [inhibitor, single point]",–
COC(=O)CCSCC(=O)Nc1cc(C)on1,"inconclusive: 0.522 µM [inhibitor, partial curve, poor fit]",–
Cc1nnc(SCC(=O)NN2C(=O)NC3(CCCCC3)C2=O)s1,–,inactive: -13.3%
CCOC(=O)C1=C(C)N(c2ccc(Cl)cc2)C(=O)NC1c1cccc([N+](=O)[O-])c1 (centres undefined),"inconclusive: 18.5 µM [inhibitor, single point]",–
CCCC(=O)NCc1ccncc1,–,inactive: 18.6%
CCOC(=O)c1c(NC(=O)CSc2nnc(-c3c[nH]c4ccccc34)n2C)sc2c1CCCC2,"inconclusive: 10.4 µM [inhibitor, single point]",–
Cc1cc(C)nc(NC(=O)c2cccc(Br)c2)n1,"inconclusive: 3.29 µM [inhibitor, single point]",–
CC(C)(C)C(=O)N1CCN(c2nc3ccc(Cl)cc3s2)CC1,–,inactive: 66.5%
COc1ccc(NC(=O)c2ccccc2NC(=O)CSc2ccccc2)cc1,"inconclusive: 9.28 µM [inhibitor, single point]",–
COc1cc(/C=N/Nc2ccccn2)ccc1OCC(C)C,"inconclusive: 18.5 µM [inhibitor, single point]",–
